Test results reported in the supplement of paper PMC7661543.
± gives the standard deviation of the averaged measurements. Differences between knockout arms are mostly noise.

Test system: BT-20
Experiment: relative cell number vs DMSO control (72 h) (% of DMSO); higher = less growth inhibition (more cells)
Experimental: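 QMAP-Seq: a pool of 5 breast cancer cell lines (ZR-75-1, SKBR3, HCC-38, MDA-MB-231, BT-20), each carrying 12 doxycycline-inducible Cas9 sgRNA perturbations (11 knockouts plus non-targeting sgNT), was treated with compounds for 72 h at four 10-fold doses (10 nM-10 uM or 1 nM-1 uM range). Barcodes were amplified and sequenced, and cell number was interpolated from 293T spike-in standard curves. The result is expressed as % of the median of DMSO wells. Two biological replicates.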

C#Cc1cccc(Nc2ncnc3cc(OCCOC)c(OCCOC)cc23)c1 [Erlotinib]
Conditions | relative cell number
sgRNA knockout: sgATF3, 10 nM | 114 ± 28
sgRNA knockout: sgATF3, 100 nM | 96.5 ± 15
sgRNA knockout: sgATF3, 1000 nM | 98.1 ± 4
sgRNA knockout: sgATF3, 10000 nM | 73.3 ± 16
sgRNA knockout: sgATF4, 10 nM | 142 ± 10
sgRNA knockout: sgATF4, 100 nM | 83.2 ± 10
sgRNA knockout: sgATF4, 1000 nM | 94.2 ± 8
sgRNA knockout: sgATF4, 10000 nM | 81.5 ± 14
sgRNA knockout: sgATF6, 10 nM | 123 ± 39
sgRNA knockout: sgATF6, 100 nM | 102 ± 14
sgRNA knockout: sgATF6, 1000 nM | 97.1 ± 2.5
sgRNA knockout: sgATF6, 10000 nM | 75.6 ± 21
sgRNA knockout: sgATG7, 10 nM | 124 ± 18
sgRNA knockout: sgATG7, 100 nM | 89.8 ± 5.4
sgRNA knockout: sgATG7, 1000 nM | 106 ± 18
sgRNA knockout: sgATG7, 10000 nM | 82.2 ± 2.4
sgRNA knockout: sgERN1, 10 nM | 112 ± 8.7
sgRNA knockout: sgERN1, 100 nM | 88.5 ± 6.3
sgRNA knockout: sgERN1, 1000 nM | 102 ± 21
sgRNA knockout: sgERN1, 10000 nM | 73.9 ± 3.3
sgRNA knockout: sgHSF1, 10 nM | 128 ± 19
sgRNA knockout: sgHSF1, 100 nM | 97.4 ± 2.4
sgRNA knockout: sgHSF1, 1000 nM | 93.1 ± 5.2
sgRNA knockout: sgHSF1, 10000 nM | 81.3 ± 12
sgRNA knockout: sgHSF2, 10 nM | 109 ± 6.5
sgRNA knockout: sgHSF2, 100 nM | 88.4 ± 9.8
sgRNA knockout: sgHSF2, 1000 nM | 95.3 ± 5.2
sgRNA knockout: sgHSF2, 10000 nM | 75.3 ± 3.4
sgRNA knockout: sgKEAP1, 10 nM | 111 ± 32
sgRNA knockout: sgKEAP1, 100 nM | 98.9 ± 2.6
sgRNA knockout: sgKEAP1, 1000 nM | 95.9 ± 6
sgRNA knockout: sgKEAP1, 10000 nM | 72.9 ± 5.2
sgRNA knockout: sgNFE2L2, 10 nM | 107 ± 10
sgRNA knockout: sgNFE2L2, 100 nM | 87.9 ± 1.5
sgRNA knockout: sgNFE2L2, 1000 nM | 108 ± 24
sgRNA knockout: sgNFE2L2, 10000 nM | 75.8 ± 13
sgRNA knockout: sgSLC35F2, 10 nM | 116 ± 8.8
sgRNA knockout: sgSLC35F2, 100 nM | 100 ± 13
sgRNA knockout: sgSLC35F2, 1000 nM | 85.8 ± 12
sgRNA knockout: sgSLC35F2, 10000 nM | 83.3 ± 19
sgRNA knockout: sgXBP1, 10 nM | 108 ± 24
sgRNA knockout: sgXBP1, 100 nM | 81 ± 3.2
sgRNA knockout: sgXBP1, 1000 nM | 108.2 ± 0.2
sgRNA knockout: sgXBP1, 10000 nM | 68.7 ± 7.8

Nc1ccn([C@@H]2O[C@H](CO)[C@@H](O)C2(F)F)c(=O)n1 [Gemcitabine]
Conditions | relative cell number
sgRNA knockout: sgATF3, 10 nM | 54.89 ± 0.53
sgRNA knockout: sgATF3, 100 nM | 26.9 ± 0.48
sgRNA knockout: sgATF3, 1000 nM | 25.5 ± 4.1
sgRNA knockout: sgATF3, 10000 nM | 27.2 ± 6.8
sgRNA knockout: sgATF4, 10 nM | 70.3 ± 10
sgRNA knockout: sgATF4, 100 nM | 33.08 ± 0.24
sgRNA knockout: sgATF4, 1000 nM | 34.82 ± 0.17
sgRNA knockout: sgATF4, 10000 nM | 26.6 ± 2.4
sgRNA knockout: sgATF6, 10 nM | 75.6 ± 6.6
sgRNA knockout: sgATF6, 100 nM | 28.4 ± 3.2
sgRNA knockout: sgATF6, 1000 nM | 34.3 ± 7
sgRNA knockout: sgATF6, 10000 nM | 30 ± 3.6
sgRNA knockout: sgATG7, 10 nM | 59.5 ± 11
sgRNA knockout: sgATG7, 100 nM | 20.5 ± 1.6
sgRNA knockout: sgATG7, 1000 nM | 28.3 ± 2.9
sgRNA knockout: sgATG7, 10000 nM | 27.6 ± 4.3
sgRNA knockout: sgERN1, 10 nM | 60.5 ± 11
sgRNA knockout: sgERN1, 100 nM | 28.8 ± 0.069
sgRNA knockout: sgERN1, 1000 nM | 34.1 ± 1.3
sgRNA knockout: sgERN1, 10000 nM | 25.7 ± 5.2
sgRNA knockout: sgHSF1, 10 nM | 71 ± 2.9
sgRNA knockout: sgHSF1, 100 nM | 25.8 ± 2.6
sgRNA knockout: sgHSF1, 1000 nM | 29.3 ± 18
sgRNA knockout: sgHSF1, 10000 nM | 27.6 ± 4.9
sgRNA knockout: sgHSF2, 10 nM | 60.6 ± 4.8
sgRNA knockout: sgHSF2, 100 nM | 31.2 ± 1.2
sgRNA knockout: sgHSF2, 1000 nM | 33 ± 2.1
sgRNA knockout: sgHSF2, 10000 nM | 25.2 ± 4.1
sgRNA knockout: sgKEAP1, 10 nM | 61.1 ± 9
sgRNA knockout: sgKEAP1, 100 nM | 28.3 ± 3.5
sgRNA knockout: sgKEAP1, 1000 nM | 31.5 ± 7.2
sgRNA knockout: sgKEAP1, 10000 nM | 28.1 ± 2.6
sgRNA knockout: sgNFE2L2, 10 nM | 73.6 ± 1.5
sgRNA knockout: sgNFE2L2, 100 nM | 28.8 ± 7.6
sgRNA knockout: sgNFE2L2, 1000 nM | 36.1 ± 0.7
sgRNA knockout: sgNFE2L2, 10000 nM | 24.3 ± 4.5
sgRNA knockout: sgSLC35F2, 10 nM | 69.3 ± 7.2
sgRNA knockout: sgSLC35F2, 100 nM | 27.8 ± 2.8
sgRNA knockout: sgSLC35F2, 1000 nM | 32.7 ± 2.8
sgRNA knockout: sgSLC35F2, 10000 nM | 29.7 ± 1.1
sgRNA knockout: sgXBP1, 10 nM | 62.2 ± 10
sgRNA knockout: sgXBP1, 100 nM | 31 ± 7.2
sgRNA knockout: sgXBP1, 1000 nM | 31.5 ± 14
sgRNA knockout: sgXBP1, 10000 nM | 27.64 ± 0.18

Cc1cc2c(C(C)C)c(O)c(O)c(C=O)c2c(O)c1-c1c(C)cc2c(C(C)C)c(O)c(O)c(C=O)c2c1O [Gossypol]
Conditions | relative cell number
sgRNA knockout: sgATF3, 10 nM | 97.4 ± 7.1
sgRNA knockout: sgATF3, 100 nM | 103 ± 5.9
sgRNA knockout: sgATF3, 1000 nM | 105 ± 2.2
sgRNA knockout: sgATF3, 10000 nM | 44.6 ± 2.7
sgRNA knockout: sgATF4, 10 nM | 105 ± 22
sgRNA knockout: sgATF4, 100 nM | 102 ± 4.3
sgRNA knockout: sgATF4, 1000 nM | 114 ± 16
sgRNA knockout: sgATF4, 10000 nM | 48 ± 4.6
sgRNA knockout: sgATF6, 10 nM | 109.2 ± 0.62
sgRNA knockout: sgATF6, 100 nM | 109 ± 28
sgRNA knockout: sgATF6, 1000 nM | 113 ± 5.8
sgRNA knockout: sgATF6, 10000 nM | 49.7 ± 8.3
sgRNA knockout: sgATG7, 10 nM | 98 ± 26
sgRNA knockout: sgATG7, 100 nM | 101 ± 5.1
sgRNA knockout: sgATG7, 1000 nM | 106 ± 5.2
sgRNA knockout: sgATG7, 10000 nM | 52.4 ± 7.8
sgRNA knockout: sgERN1, 10 nM | 97.1 ± 1.5
sgRNA knockout: sgERN1, 100 nM | 106 ± 2.8
sgRNA knockout: sgERN1, 1000 nM | 97.3 ± 5.2
sgRNA knockout: sgERN1, 10000 nM | 46.1 ± 3.6
sgRNA knockout: sgHSF1, 10 nM | 102 ± 21
sgRNA knockout: sgHSF1, 100 nM | 100 ± 6.3
sgRNA knockout: sgHSF1, 1000 nM | 112 ± 5
sgRNA knockout: sgHSF1, 10000 nM | 45.5 ± 2.8
sgRNA knockout: sgHSF2, 10 nM | 104 ± 3.7
sgRNA knockout: sgHSF2, 100 nM | 102 ± 18
sgRNA knockout: sgHSF2, 1000 nM | 104 ± 6.4
sgRNA knockout: sgHSF2, 10000 nM | 46.4 ± 2.6
sgRNA knockout: sgKEAP1, 10 nM | 96.4 ± 1.1
sgRNA knockout: sgKEAP1, 100 nM | 84 ± 9.2
sgRNA knockout: sgKEAP1, 1000 nM | 105 ± 4.6
sgRNA knockout: sgKEAP1, 10000 nM | 46.4 ± 3.4
sgRNA knockout: sgNFE2L2, 10 nM | 113.5 ± 0.64
sgRNA knockout: sgNFE2L2, 100 nM | 96.6 ± 7.8
sgRNA knockout: sgNFE2L2, 1000 nM | 114 ± 12
sgRNA knockout: sgNFE2L2, 10000 nM | 45.23 ± 0.3
sgRNA knockout: sgSLC35F2, 10 nM | 110 ± 21
sgRNA knockout: sgSLC35F2, 100 nM | 122 ± 9.5
sgRNA knockout: sgSLC35F2, 1000 nM | 115 ± 4.8
sgRNA knockout: sgSLC35F2, 10000 nM | 46.1 ± 3
sgRNA knockout: sgXBP1, 10 nM | 100 ± 14
sgRNA knockout: sgXBP1, 100 nM | 86.2 ± 23
sgRNA knockout: sgXBP1, 1000 nM | 107 ± 16
sgRNA knockout: sgXBP1, 10000 nM | 49.7 ± 1.5
